The source of these data is PubChem BioAssay AID2685 (National Center for Advancing Translational Sciences (NCATS), 2010).

Usually AC50 stands for the midpoint of the concentration-response curve, whichever way the signal moves. High values mean activity only at high concentration, low ones activity at low concentration.

Values joined by “and” are separate entries in the source; they are usually repeats but may differ in a detail not shown here. Identical values can stand only once. The list shows a part of the results. The main result of the screen is listed elsewhere. These columns were measured beside it and carry no call. Compounds called inactive in the main read-out are mostly missing here. The note in brackets gives the kind of curve behind each potency; many fits are weak.

The nature of the assay: qHTS Assay for Lipid Storage Modulators in Drosophila S3 Cells.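 On cell number change: cells counted by Cell Tracker Red CMTPX staining in the red channel.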 The note with it: BODIPY lipid droplet fluorescence, 18-24 h; for cell number change: measured here: cell count max response, cells fed with added oleic acid. In a few lines:
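Drosophila S3 cells loaded with oleic acid (400 uM, as added) and compounds at several concentrations; lipid droplets imaged by 488-nm laser-scanning cytometry, 500–530 nm intensity and object ratio to cell channel. Percent activity normalized to 20 uM Triacsin C.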
On the technique in general: Quantitative high-throughput screening tests each substance at several concentrations.

[1] abbreviates: measured here: lipid fluorescence (Fed channel) AC50, cells fed with added oleic acid.
The mark [2] stands for this setting: measured here: cell number channel AC50, cells fed with added oleic acid.

Take `O=C(Nc1ccc(F)cc1)c1nsc(Cl)c1Cl`: the cell number change was -17.8%. In addition, the concentration at half-maximal activity (AC50) under setting [1] was 20.6 µM [falling, single point].
Consider `O=C(CN1C(=O)C2CCCCC2C1=O)NC1CCCc2ccccc21` (stereo unspecified), for which the cell number change is -18.5%.
The same measure, in the same setting: to `COCCNC(=O)C(=O)Nc1cc2c3c(c1)CC(=O)N3CCC2` belongs -23.9%.
Consider `COc1ccc(Nc2nc3ccccc3n3cnnc23)cc1`, for which the cell number change was -2.63%. In addition, under setting [1], the AC50 was 6.51 µM [rising, single point].
With `O=C(c1ccncc1)N1CCN(c2ccc3ccccc3n2)CC1`, the cell number change was -6.15%. Also, the AC50 under setting [2] was 6.51 µM [falling, single point].
On to `Cc1onc(-c2c(Cl)cccc2Cl)c1C(=O)N1CCOCC1`, for which the cell number change came out at 22.7%.
Turning to `CS(=O)(=O)N1N=C(c2cccs2)CC1c1ccccc1F` (stereo unspecified), the cell number change was determined as 8.04%. Besides, under setting [1], the AC50 is 0.58 µM [falling, full curve].
As to `Cc1occc1C(=O)N1CCCC(Nc2ccc(C(C)C)cc2)C1` (stereo unspecified), the cell number change was -12.8%. The AC50 under setting [1] is 11.2 µM [falling, single point].
Take `CN1C(=S)N(c2cccnc2)C(=O)/C1=C\c1ccc(N(C)C)cc1`: the cell number change is -57%.
For the compound `Cc1cc(OCC(=O)N2CCOCC2)c(C(C)C)cc1Cl`, the cell number change turned out to be 188%. The AC50 under setting [2] was 29.1 µM [rising, single point]. For the same compound, the AC50 under setting [1] was 29.1 µM [rising, single point].
Turning to `COc1cc(OC)c(C(=O)Nc2cccc3ccccc23)cc1OC`, the cell number change was -4.4%. Besides, under setting [1], the AC50 was 29.1 µM [falling, single point].
On to `COc1ccc(CCNC(=O)CCSc2nc(-c3ccco3)cc(C(F)(F)F)n2)cc1`, for which the AC50 under setting [1] was 29.1 µM [falling, single point].
For the compound `O=C(C(Cc1ccccc1)n1cccc1)N1CCN(C2CCCCC2)CC1` (stereo unspecified), the half-maximal activity concentration (AC50) under setting [1] was 0.651 µM [falling, single point].
For the compound `Cc1ccc(N(CC(=O)NC2CCCC2)C(=O)CNC(=O)c2cccs2)cc1C`, the cell number change was -2.17%.
`COc1ccc2c(c1[N+](=O)[O-])CCC/C2=N/OC(=O)c1cccc2ccccc12`: the cell number change stood at 30.7%. Besides, the AC50 under setting [2] was 4.11 µM [rising, single point]. For the same compound, the AC50 under setting [1] was 20.6 µM [rising, partial curve].
Consider `Cc1ccc(-c2cn(-c3ccccc3)c3[n+]2CCCS3)cc1`, for which the cell number change is -54.3% and -41.5%. In addition, the AC50 under setting [2] was 29.1 µM [falling, single point] and 25.9 µM [falling, partial curve]. Moreover, the AC50 under setting [1] is 25.9 µM [falling, partial curve, poor fit] and 23.1 µM [falling, partial curve].
Turning to `CC(=O)c1cccc(NC(=S)NC2CCCCC2)c1`, the cell number change worked out at 4.56%. The AC50 under setting [2] is 0.103 µM [falling, full curve, poor fit].
Turning to `O=c1ccc2cc(S(=O)(=O)N3CCN(c4ccc(Cl)cc4)CC3)ccc2o1`, the cell number change was determined as 20.5%.
In the case of `CCOc1ccc(NC(=O)C2CCCN(S(C)(=O)=O)C2)cc1` (stereo unspecified), the cell number change stood at 19.5%. Besides, the AC50 under setting [1] is 13 µM [rising, partial curve, poor fit].
For the compound `CCCOc1ccccc1OCC(=O)N1CCN(S(=O)(=O)c2ccc(Cl)cc2)CC1`, the cell number change is -13.2%. Besides, under setting [1], the AC50 was 7.31 µM [falling, partial curve, poor fit].
Regarding `CCN(CC)S(=O)(=O)c1ccc(-n2cnc3cc(C)c(C)cc32)nc1`, the cell number change is -23%. Moreover, the AC50 under setting [2] is 1.3 µM [falling, full curve, poor fit].
For `Cc1cccnc1NC1CCCCC1`, the cell number change came to 54.1%. For the same compound, the AC50 under setting [1] is 0.731 µM [falling, full curve].
Take `CC(=O)c1ccc(NS(=O)(=O)c2cccc(C)c2)cc1`: the cell number change was -15.8%. In addition, the AC50 under setting [1] is 16.4 µM [rising, single point].
As for `Cc1c(C(=O)NCc2cccnc2)oc2ccc(S(=O)(=O)N3CCCC(C)C3)cc12` (stereo unspecified), the cell number change was -0.702%.
Take `CC(C)Cn1cnc2c(c1=O)c1nc3ccccc3nc1n2Cc1ccc2c(c1)OCO2`: the cell number change is -9.74%.
Regarding `O=C(NCCCCNC(=O)c1ccco1)c1ccco1`, the cell number change is -34%. Besides, the AC50 under setting [2] is 4.61 µM [falling, full curve]. Also, the AC50 under setting [1] was 29.1 µM [falling, single point].
Regarding `Oc1ccccc1CN(Cc1ccco1)CC(O)COCc1ccc(Cl)cc1` (stereo unspecified), the cell number change is -81.2%. Further, under setting [2], the AC50 is 25.9 µM [falling, single point]. Also, under setting [1], the AC50 is 6.51 µM [falling, partial curve].
For `O=C(Nc1ccncc1)c1c(Cl)cccc1Cl`, the cell number change is -6.99%.
With `COC(=O)c1ccccc1-c1ccc(/C=N/NC(N)=O)o1`, the cell number change was 19.4%. Also, the AC50 under setting [1] was 5.17 µM [rising, single point].
Consider `COC(=O)C1=C(Cn2cnc3ccccc32)NC(=O)NC1c1cc(C)ccc1C` (stereo unspecified), for which the cell number change is -3.91%.
With `O=C(Nc1cccc(-n2cnnn2)c1)c1cc(Cl)nc(Cl)c1`, the cell number change stood at 4.96%.
`Cc1cc(Cl)c2oc(C(=O)N(C)C3CCOC3)c(C)c2c1` (stereo unspecified): the cell number change stood at 20.3%. The AC50 under setting [1] was 6.51 µM [rising, single point].
`Cc1ccc(-n2c(N)c(C(N)=O)sc2=S)cc1`: the cell number change was -90.6%. Besides, the AC50 under setting [2] was 0.651 µM [falling, full curve]. Besides, the AC50 under setting [1] was 0.82 µM [falling, full curve, poor fit].
For `O=C(Nc1nnc(C2CC2)s1)C1=NN(C2CCS(=O)(=O)C2)C(=O)CC1` (stereo unspecified), the cell number change is -23.7%. The AC50 under setting [2] was 6.51 µM [rising, single point].
`Fc1ccc(-c2nnc(SCc3ncc(-c4ccccc4)o3)n2CC2CCCO2)cc1` (stereo unspecified): the cell number change was 8.2%. Also, the AC50 under setting [1] was 0.206 µM [rising, full curve].
As for `O=C(OC(C(=O)Nc1cccc(C(F)(F)F)c1)c1ccccc1)C1CCCCC1` (stereo unspecified), the cell number change was -17.1%.
As for `O=C(OCC(=O)N1CCc2ccccc21)c1c2c(nc3ccccc13)CCCCC2`, the cell number change is -35.1%. In addition, under setting [2], the AC50 is 6.51 µM [falling, single point].
As to `CC1=C(C)C(=O)N(CCC(=O)O)C1=O`, the AC50 under setting [1] was 4.11 µM [rising, single point].
On to `CCn1c2ccccc2c2cc(NC(=O)COC(=O)c3cccc(S(=O)(=O)NC)c3)ccc21`, for which the cell number change is -3.56%. The AC50 under setting [1] was 5.8 µM [rising, full curve].
For `COCCN(C(=O)CNC(=O)c1ccco1)C(C(=O)NC1CCCCC1)c1cccnc1` (stereo unspecified), the cell number change is 6.09%. Further, the AC50 under setting [1] was 6.51 µM [rising, single point].
For the compound `COc1c(F)c(F)c(C(=O)Nc2ccc(N3CCN(C(C)=O)CC3)c(Cl)c2)c(F)c1F`, the cell number change was -18.9%. Besides, the AC50 under setting [1] is 6.51 µM [rising, single point].
Turning to `CCOC(=O)C1CCCN(c2c(NCCc3ccc(S(N)(=O)=O)cc3)c(=O)c2=O)C1` (stereo unspecified), the cell number change is 4.7%. Besides, the AC50 under setting [1] was 0.82 µM [rising, single point].
Take `Cc1ccccc1/C=C/C(=O)c1ccc([N+](=O)[O-])o1`: the cell number change was -91.9%. Also, under setting [2], the AC50 is 16.4 µM [falling, partial curve]. The AC50 under setting [1] was 4.11 µM [falling, full curve].
For `CCn1c(SCc2nc3ccccc3[nH]2)nnc1-c1cccs1`, the cell number change is -36.6%. Also, the AC50 under setting [2] is 18.4 µM [falling, single point]. The concentration at half-maximal activity (AC50) under setting [1] is 11.6 µM [falling, partial curve].
Turning to `CCOC(=O)N1CCN(C2CCCN(C(=O)c3cccc(Cl)c3)C2)CC1` (stereo unspecified), the cell number change is 16.7%. Also, the AC50 under setting [2] was 3.66 µM [rising, partial curve, poor fit]. Under setting [1], the AC50 is 0.00517 µM [rising, full curve, poor fit].
For `COC(=O)c1cc(S(=O)(=O)NCC2CCN(Cc3cccc(F)c3)CC2)cn1C`, the cell number change turned out to be 22.6%.
For the compound `O=C(NC1CCCCNC1=O)c1ccco1` (stereo unspecified), the cell number change stood at 20.8%. The AC50 under setting [1] is 0.00517 µM [rising, full curve, poor fit].
Regarding `Cc1ccc(C(=O)CCC(=O)OCC(=O)Nc2nnc(-c3ccccc3)o2)cc1`, the cell number change was 1%.
For the compound `Cc1ccc(Nc2ncnc3sccc23)c(C)c1`, the cell number change was -9.01%. Also, under setting [1], the AC50 was 0.13 µM [rising, full curve, poor fit].
On to `NNC(=O)c1ccc(CN2CCCCC2)o1`, for which the cell number change was -16.9%. Also, the AC50 under setting [1] was 0.13 µM [falling, full curve, poor fit].
As to `CC(Oc1ccccc1F)C(=O)NNC(=O)c1cc2ccccc2o1` (stereo unspecified), the cell number change came out at 6.36%. The AC50 under setting [2] was 6.51 µM [rising, single point]. Further, under setting [1], the AC50 is 4.61 µM [rising, full curve].
With `C#CC(=O)N(c1ccc(OC)cc1OC)C(C(=O)NC1CCCC1)c1cccs1` (stereo unspecified), the cell number change was -72.9%. Further, the AC50 under setting [2] is 16.4 µM [falling, partial curve]. The AC50 under setting [1] was 16.4 µM [falling, single point].
For `Cc1cc(C)cc(N(C(C)C(=O)NC2CCCC2)S(C)(=O)=O)c1` (stereo unspecified), the cell number change is 1.31%.
On to `CCN(c1ccccc1)S(=O)(=O)c1cccc(C(=O)N2CCN(S(=O)(=O)c3ccccc3)CC2)c1`, for which the cell number change is -30.8%. In addition, the AC50 under setting [2] is 16.4 µM [falling, partial curve]. Also, under setting [1], the AC50 is 8.2 µM [falling, partial curve].
As to `CN(C)S(=O)(=O)c1ccc(N2CCCC2)c(C(=O)Nc2ccccc2)c1`, the cell number change came out at 15%. Further, under setting [1], the AC50 was 8.2 µM [falling, partial curve].
Turning to `O=C(Nc1ccc(Cl)cc1)N(Cc1cccs1)Cc1cccs1`, the cell number change is 165%. Further, under setting [2], the AC50 is 20.6 µM [rising, single point]. Further, the AC50 under setting [1] was 23.1 µM [rising, single point].
Consider `Cc1ccccc1C(=O)Nn1c(C)ccc1C`, for which the cell number change is -0.125%. The AC50 under setting [2] is 0.651 µM [falling, full curve].
Take `CCN(Cc1ccncc1)Cc1ccc(Br)cc1`: the cell number change was -41.8%. Further, the AC50 under setting [2] is 29.1 µM [falling, single point]. Also, the AC50 under setting [1] was 8.2 µM [falling, partial curve].
On to `CN(C)c1ccc(CNCC2CCCO2)cc1` (stereo unspecified), for which the cell number change worked out at 8.29%. Also, the AC50 under setting [1] is 0.82 µM [rising, partial curve].
As for `c1ccc(CN2CCC(Nc3nc(-c4cccnc4)nc4ccccc34)CC2)cc1`, the cell number change worked out at 70.4%. Moreover, the AC50 under setting [2] is 0.651 µM [rising, full curve].
On to `COC(=O)c1cccnc1NC(=S)NNC(=O)c1ccncc1`, for which the cell number change is -46.3%. Further, under setting [2], the AC50 was 18.4 µM [falling, single point]. Also, under setting [1], the AC50 was 0.731 µM [rising, full curve, poor fit].
As for `Cc1ccc2ccc(S(=O)(=O)n3nc(C)cc3C)cc2c1`, the cell number change came out at 18.4%. Besides, the AC50 under setting [1] was 0.259 µM [rising, full curve].
